## Screening data, single-dose tests

Chains of the proteins cited; added tags and fusions are not shown. Residues count along the entry.
UniProt I6X8D2, whole entry: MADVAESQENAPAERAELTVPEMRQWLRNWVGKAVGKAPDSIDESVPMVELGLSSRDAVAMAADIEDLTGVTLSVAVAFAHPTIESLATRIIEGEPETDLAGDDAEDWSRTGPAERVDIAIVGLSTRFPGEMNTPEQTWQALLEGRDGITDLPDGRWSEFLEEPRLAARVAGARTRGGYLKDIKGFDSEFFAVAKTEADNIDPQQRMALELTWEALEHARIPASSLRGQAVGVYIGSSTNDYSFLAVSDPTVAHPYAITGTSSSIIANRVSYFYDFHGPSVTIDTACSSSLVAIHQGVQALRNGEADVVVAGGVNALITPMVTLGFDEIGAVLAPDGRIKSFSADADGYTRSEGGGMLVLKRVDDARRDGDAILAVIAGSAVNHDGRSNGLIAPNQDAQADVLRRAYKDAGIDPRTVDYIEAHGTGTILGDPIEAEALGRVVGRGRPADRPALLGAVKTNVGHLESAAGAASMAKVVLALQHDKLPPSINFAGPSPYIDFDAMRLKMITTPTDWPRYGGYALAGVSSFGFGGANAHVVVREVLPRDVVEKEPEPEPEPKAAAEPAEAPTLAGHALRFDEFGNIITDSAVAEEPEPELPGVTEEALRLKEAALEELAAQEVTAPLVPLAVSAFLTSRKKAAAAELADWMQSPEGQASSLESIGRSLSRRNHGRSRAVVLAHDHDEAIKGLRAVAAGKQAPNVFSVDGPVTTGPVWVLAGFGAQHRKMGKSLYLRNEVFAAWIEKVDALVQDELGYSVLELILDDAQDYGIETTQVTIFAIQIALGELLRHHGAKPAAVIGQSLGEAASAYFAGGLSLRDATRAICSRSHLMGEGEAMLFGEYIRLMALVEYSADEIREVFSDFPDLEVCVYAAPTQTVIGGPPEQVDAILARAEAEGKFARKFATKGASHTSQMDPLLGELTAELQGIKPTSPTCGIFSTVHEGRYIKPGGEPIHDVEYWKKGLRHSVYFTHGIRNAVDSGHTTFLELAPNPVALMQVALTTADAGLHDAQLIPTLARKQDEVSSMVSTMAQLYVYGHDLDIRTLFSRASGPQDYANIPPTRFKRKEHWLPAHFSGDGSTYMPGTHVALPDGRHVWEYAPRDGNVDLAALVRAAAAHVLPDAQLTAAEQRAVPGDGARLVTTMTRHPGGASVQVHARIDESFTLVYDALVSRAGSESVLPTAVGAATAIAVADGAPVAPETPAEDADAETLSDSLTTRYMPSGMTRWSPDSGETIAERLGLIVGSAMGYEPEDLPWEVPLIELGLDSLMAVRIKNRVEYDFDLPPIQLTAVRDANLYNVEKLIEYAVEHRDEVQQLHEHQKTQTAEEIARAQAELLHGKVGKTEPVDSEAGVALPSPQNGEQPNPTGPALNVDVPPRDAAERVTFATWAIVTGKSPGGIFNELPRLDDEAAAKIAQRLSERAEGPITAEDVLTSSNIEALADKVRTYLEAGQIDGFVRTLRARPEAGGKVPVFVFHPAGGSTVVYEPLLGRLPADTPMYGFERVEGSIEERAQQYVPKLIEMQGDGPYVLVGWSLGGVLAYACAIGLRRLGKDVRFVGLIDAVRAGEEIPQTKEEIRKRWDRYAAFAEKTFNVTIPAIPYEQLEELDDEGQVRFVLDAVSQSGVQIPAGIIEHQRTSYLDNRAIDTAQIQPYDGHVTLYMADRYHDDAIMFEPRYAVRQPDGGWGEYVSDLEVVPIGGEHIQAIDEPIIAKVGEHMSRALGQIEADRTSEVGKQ
UniProt Q8IDJ8, 1-583: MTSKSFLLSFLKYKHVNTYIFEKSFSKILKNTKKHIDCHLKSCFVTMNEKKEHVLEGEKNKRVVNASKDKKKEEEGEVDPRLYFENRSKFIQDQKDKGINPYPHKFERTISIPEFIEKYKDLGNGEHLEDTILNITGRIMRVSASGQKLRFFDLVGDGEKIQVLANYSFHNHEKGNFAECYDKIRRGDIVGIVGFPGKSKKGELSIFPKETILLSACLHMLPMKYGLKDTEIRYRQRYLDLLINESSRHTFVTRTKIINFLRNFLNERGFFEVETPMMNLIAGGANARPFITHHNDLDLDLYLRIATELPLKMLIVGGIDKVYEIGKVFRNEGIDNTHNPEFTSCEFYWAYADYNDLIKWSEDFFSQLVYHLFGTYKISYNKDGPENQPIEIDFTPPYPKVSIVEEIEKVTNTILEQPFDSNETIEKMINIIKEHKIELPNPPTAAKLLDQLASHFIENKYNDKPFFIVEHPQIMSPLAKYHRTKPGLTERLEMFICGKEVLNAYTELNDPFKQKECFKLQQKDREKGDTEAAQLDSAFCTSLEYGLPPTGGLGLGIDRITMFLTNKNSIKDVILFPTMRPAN
UniProt A4I591, 1-473: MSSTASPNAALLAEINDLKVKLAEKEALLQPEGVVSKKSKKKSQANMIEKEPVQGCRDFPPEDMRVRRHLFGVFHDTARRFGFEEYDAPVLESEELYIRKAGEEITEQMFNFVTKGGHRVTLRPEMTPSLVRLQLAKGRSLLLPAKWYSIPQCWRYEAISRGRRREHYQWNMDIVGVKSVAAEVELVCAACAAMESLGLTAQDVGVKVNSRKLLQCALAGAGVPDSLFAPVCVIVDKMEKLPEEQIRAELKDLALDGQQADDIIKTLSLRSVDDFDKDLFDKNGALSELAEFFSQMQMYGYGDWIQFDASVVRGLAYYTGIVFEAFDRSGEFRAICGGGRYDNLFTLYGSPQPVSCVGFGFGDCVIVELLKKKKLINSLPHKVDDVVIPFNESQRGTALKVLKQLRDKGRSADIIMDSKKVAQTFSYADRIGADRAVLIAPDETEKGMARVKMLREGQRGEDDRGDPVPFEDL
UniProt Q4DA54, 1-478: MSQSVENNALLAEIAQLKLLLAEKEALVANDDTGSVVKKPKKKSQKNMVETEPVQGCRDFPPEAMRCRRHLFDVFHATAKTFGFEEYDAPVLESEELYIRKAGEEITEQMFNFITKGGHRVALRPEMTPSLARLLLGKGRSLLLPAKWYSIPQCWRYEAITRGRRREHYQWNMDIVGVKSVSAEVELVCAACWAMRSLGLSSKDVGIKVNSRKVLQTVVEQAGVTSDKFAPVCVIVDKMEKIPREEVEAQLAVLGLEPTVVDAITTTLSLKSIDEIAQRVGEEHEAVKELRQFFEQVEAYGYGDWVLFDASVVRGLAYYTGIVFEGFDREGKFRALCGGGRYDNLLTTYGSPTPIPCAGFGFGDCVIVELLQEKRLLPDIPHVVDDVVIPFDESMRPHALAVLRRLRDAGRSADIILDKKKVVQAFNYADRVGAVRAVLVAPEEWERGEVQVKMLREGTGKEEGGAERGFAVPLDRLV

Pks13 thioesterase: 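Polyketide synthase Pks13, Mycobacterium tuberculosis (UniProt I6X8D2). Enzyme assay of the thioesterase domain of polyketide synthase 13; the read-out is not stated. Tested at 30 µM. The record gives no direction; the compounds picked for IC50 retests had high values, so higher reads as stronger inhibition. Of about 67,000 compounds tested this way, about 300 (0.46%) reached 50% or more in at least one test.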
PfKRS1: 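Enzyme assay of the cytosolic lysyl-tRNA synthetase in 384-well plates, read by luminescence. Target: Lysine-tRNA ligase, Plasmodium falciparum 3D7 (UniProt Q8IDJ8). Tested at 30 µM. Direction is inferred from only a few compounds that gave an IC50; most scored high, so higher reads as stronger inhibition. Size under these conditions: about 69,000 compounds, about 49 of them at 50% or above in at least one test.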
LiHisRS: 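Histidine-tRNA ligase, Leishmania infantum (UniProt A4I591). Enzyme assay of histidyl-tRNA synthetase; the read-out is not stated. Compounds at 30 µM. Direction is inferred from retests: higher values go with stronger inhibition. The assay is labelled LdHisRS but filed under L. infantum. Size under these conditions: about 69,000 compounds, about 410 of them at 50% or above in at least one test.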
TcHisRS: 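Histidine-tRNA ligase, Trypanosoma cruzi CL Brener (UniProt Q4DA54). Enzyme assay of histidyl-tRNA synthetase; the read-out is not stated. Tested at 30 µM. The record gives no direction; compounds that gave an IC50 in retests scored well above the rest, so higher reads as stronger inhibition. About 69,000 compounds were tested under these conditions; 0.045% (about 31) showed 50% or more at least once.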

The filed quantity is “Percent Effect” (%). The record does not define 0% and 100%; most values in the screen are far below 50% and negative numbers occur (in some assays of this library far below -100). Compounds were drawn at random from those tested, without regard to their results.

With COc1c(C2CCCN2C(=O)c2ccnc(C)n2)c(C)nn1C (stereo not drawn) the screen gave Pks13 thioesterase: -12.02%; PfKRS1: -1.002%; LiHisRS: 15.04%; TcHisRS: 7.872%.
With Cc1nn(-c2ccccc2)cc1C(=O)N1CCCC(n2ccnc2)C1 (stereo not drawn) the screen gave Pks13 thioesterase: -46.97%; PfKRS1: 0.4762%; LiHisRS: 8.621%; TcHisRS: 4.52%.
With Cc1cccnc1NC(=O)CNC(=O)c1ccccc1Cl the screen gave Pks13 thioesterase: -1.331%; PfKRS1: 5.983%; LiHisRS: 12.8%; TcHisRS: 4.902%.
With CN(C)c1ccc(C(=O)N(CCO)CC2CC2)c(F)c1 the screen gave Pks13 thioesterase: -7.613%; PfKRS1: -5.456%; LiHisRS: 5.357%; TcHisRS: 1.754%.
With CCCS(=O)(=O)N1CCC(NC(=O)c2ccc(C)s2)CC1 the screen gave Pks13 thioesterase: 2.021%; PfKRS1: 8.166%; LiHisRS: 8.036%; TcHisRS: 5%.
With COc1c[nH]c(C(=O)Nc2nc(C(C)(C)C)cs2)cc1=O the screen gave Pks13 thioesterase: -8.481%; PfKRS1: 1.43%; LiHisRS: 5.263%; TcHisRS: 1.754%.
With Cc1nc(C)n(CC2CCCCN2CCCS(N)(=O)=O)n1 (stereo not drawn) the screen gave Pks13 thioesterase: -1.852%; PfKRS1: 1.247%; LiHisRS: 14.52%; TcHisRS: 5.155%.
With Cc1nc(C)c(CN2CCOC[C@H](Oc3ccccc3)C2)s1 the screen gave Pks13 thioesterase: -27.31%; PfKRS1: -0.5231%; LiHisRS: 16.67%; TcHisRS: -1.493%.
With N#Cc1cc(F)c(NCCc2ccc(F)cc2)c(F)c1 the screen gave Pks13 thioesterase: -0.5052%; PfKRS1: 3.873%; LiHisRS: 17.95%; TcHisRS: -3.933%.
With FC(F)(F)Oc1ccc(-c2noc([C@@H]3Cc4nc[nH]c4CN3)n2)cc1 the screen gave Pks13 thioesterase: -12.04%; PfKRS1: 6.348%; LiHisRS: 0%; TcHisRS: 8.911%.
With Cc1cc(NC(=O)NCC(C)O)n(C)n1 (stereo not drawn) the screen gave Pks13 thioesterase: -32.06%; PfKRS1: 0.8125%; LiHisRS: -5.6%; TcHisRS: -1.901%.
With COCCN1CCO[C@H]2CN(Cc3cc[nH]n3)C[C@H]21 the screen gave Pks13 thioesterase: -9.825%; PfKRS1: 3.558%; LiHisRS: 23.76%; TcHisRS: 7.538%.
With CN(C)C(CNC(=O)c1cc2c([nH]c1=O)CCCC2=O)c1ccsc1 (stereo not drawn) the screen gave Pks13 thioesterase: -7.999%; PfKRS1: -0.9716%; LiHisRS: 21.54%; TcHisRS: 1.149%.
With O=C(NC1CC1)[C@@H]1CCO[C@@H]2CCN(CC3CCC3)C[C@H]21 the screen gave Pks13 thioesterase: -15.98%; PfKRS1: 3.663%; LiHisRS: 24%; TcHisRS: 3.093%.
With Cc1cccc(CC(=O)NCCCOC(C)C)c1 the screen gave Pks13 thioesterase: -4.392%; PfKRS1: 2.632%; LiHisRS: 8.219%; TcHisRS: 3.053%.
With COCCN1CCC2(CCCN(c3ncc(F)cn3)C2)C1 (stereo not drawn) the screen gave Pks13 thioesterase: -10.98%; PfKRS1: 1.726%; LiHisRS: 16%; TcHisRS: 8.046%.
With Cc1ccc(CN2CCC[C@]3(C(=O)O)CN(c4ncccn4)C[C@@H]3C2)o1 the screen gave Pks13 thioesterase: -2.504%; PfKRS1: 1.139%; LiHisRS: 20.75%; TcHisRS: 3.784%.

Repeated from the top, 2 entries:

COc1c(C2CCCN2C(=O)c2ccnc(C)n2)c(C)nn1C (stereo not drawn) read Pks13 thioesterase: -12.02%; PfKRS1: -1.002%; LiHisRS: 15.04%; TcHisRS: 7.872%.
Cc1nn(-c2ccccc2)cc1C(=O)N1CCCC(n2ccnc2)C1 (stereo not drawn) read Pks13 thioesterase: -46.97%; PfKRS1: 0.4762%; LiHisRS: 8.621%; TcHisRS: 4.52%.

The values are deposited in ChEMBL (CHEMBL3988442, “University of Dundee, Small-Polar-MMV Screening Library” (2021)).